The target in one assay is HSP-4::GFP (C. elegans) (UniProt P20163). Briefly: co-IP.
Assay [1] concerns the target P97(CDC48.1)::GFP::HA::6×His (C. elegans) (UniProt P54811). In words: co-IP.

Sequences of proteins named here, by UniProt entry; tags and fusion partners are left off. Residues count along the entry.
UniProt P20163, residues 18-657: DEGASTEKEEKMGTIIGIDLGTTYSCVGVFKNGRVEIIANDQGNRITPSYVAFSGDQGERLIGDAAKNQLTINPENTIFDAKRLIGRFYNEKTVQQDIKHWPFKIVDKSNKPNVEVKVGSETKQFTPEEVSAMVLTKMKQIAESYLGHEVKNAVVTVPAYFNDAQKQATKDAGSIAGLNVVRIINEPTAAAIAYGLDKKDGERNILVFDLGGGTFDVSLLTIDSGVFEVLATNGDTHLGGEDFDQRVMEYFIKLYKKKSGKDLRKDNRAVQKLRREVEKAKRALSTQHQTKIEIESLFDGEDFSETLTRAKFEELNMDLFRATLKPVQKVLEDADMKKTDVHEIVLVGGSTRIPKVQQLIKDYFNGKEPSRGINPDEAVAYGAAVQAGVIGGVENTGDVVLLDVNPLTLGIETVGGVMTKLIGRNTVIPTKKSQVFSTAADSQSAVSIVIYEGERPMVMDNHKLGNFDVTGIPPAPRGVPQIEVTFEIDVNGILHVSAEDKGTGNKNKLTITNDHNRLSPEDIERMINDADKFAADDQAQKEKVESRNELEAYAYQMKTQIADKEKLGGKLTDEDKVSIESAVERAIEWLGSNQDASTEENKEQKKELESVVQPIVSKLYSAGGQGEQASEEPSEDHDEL
UniProt P54811: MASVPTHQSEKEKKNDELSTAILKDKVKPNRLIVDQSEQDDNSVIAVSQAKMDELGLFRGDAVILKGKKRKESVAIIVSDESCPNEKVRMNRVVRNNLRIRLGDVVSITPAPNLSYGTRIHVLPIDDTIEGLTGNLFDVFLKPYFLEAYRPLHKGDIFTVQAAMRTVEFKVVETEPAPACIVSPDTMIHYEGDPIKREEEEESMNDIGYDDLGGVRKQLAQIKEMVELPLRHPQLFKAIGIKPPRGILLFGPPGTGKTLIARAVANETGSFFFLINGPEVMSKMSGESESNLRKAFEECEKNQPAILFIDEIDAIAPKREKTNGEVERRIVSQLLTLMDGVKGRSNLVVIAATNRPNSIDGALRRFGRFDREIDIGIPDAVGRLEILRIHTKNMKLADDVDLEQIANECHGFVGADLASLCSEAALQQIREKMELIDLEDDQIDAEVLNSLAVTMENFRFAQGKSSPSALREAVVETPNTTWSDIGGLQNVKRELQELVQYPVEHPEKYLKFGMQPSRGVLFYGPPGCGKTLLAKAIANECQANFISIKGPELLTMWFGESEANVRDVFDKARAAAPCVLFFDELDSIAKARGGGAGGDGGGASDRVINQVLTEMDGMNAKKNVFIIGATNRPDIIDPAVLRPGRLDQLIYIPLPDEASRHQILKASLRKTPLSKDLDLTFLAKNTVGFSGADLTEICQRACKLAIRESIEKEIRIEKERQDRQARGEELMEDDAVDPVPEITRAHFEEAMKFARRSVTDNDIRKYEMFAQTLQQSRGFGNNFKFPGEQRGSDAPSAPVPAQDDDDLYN

In doi:10.1101/2024.06.17.599447 one finds binding data, which are given here for two molecules.

No constants are given. Whether binding was seen depends on the method and setting. Binding seen in cells or lysates may run through a third protein. Some binding calls cover weakened binding; strength is not graded here. Sequences can lack the tags named with a protein.

B1: 3×Flag::FEM-3 (protein, UniProt P34691 1-388)
chain: MEVDPGSDDVEADRETRAQKLKLKRNVKFRAQMRRFDEYCGVTNLTVDDLNWPLISGIPLQRQRLTGATYYDDSLLDQNPWDEFSIDRFLEITSIQLITAGAGYERNDEITRFVFQRTMKTIVTYCNFMYDLARRNGKVQITRFELQDLIHRDEFRFYMYFRQFLPNPDPNCTAFSNHYTSLLHTLYFNIPGMPQFWNNSQMYNYAATRGQRLVQNIAAFYPPEYFWNEDESKYHTTFVVPRGTEFSKFYARRFHEALGMPPLENEIITVLDWLAKLCILEIVYHTTIWCDITGFGGLPRIEHYRLAMENVEDIIFDLAIDDFSISRLQLQISPFEISRYSPLDVSGYYETIKRKKDIEEYQNRFYEVHYSDDVRIMNVYATDCSRKR
Take B1: in the assay with HSP-4::GFP (C. elegans), the binding entry is recorded as “no binding”.

B2: TRA-2::Flag::HA (protein, UniProt P34709 32-1475)
chain: IDYQEKSIFPSFVSQGFFETRTNNEEYIIEKIAQTQENGVDMRSTLHFTQHGYLLNNISNLKIKFRQKTYTLNDVCFKPHITIFQQSSSSDQNEYPHYIQRLLLEMQRLSPCLIVTPLNCFYDIYRIHGEISNWNKNTDFLNRRLRNSYIEAIGENDERPYVKSNYGPSLIKSWADHMFDLPSKSFTNSTKDALFQKIKLWLLSIEPRQKTCAASIHSCDTPLDSEHYFNICTDMQSVDNFAEKKTKFKLEDVDEEFAMNLDCVDDQEQFIEWMQELEIRKMYSHVTEKPDYPNVVNQTCDKIFHDLNSTGIEFFDGSRSFSSTKSQFDTMQTEIVLLTPEMLLSAMQHSDFVNGFESIWTIEKAEELIHEFRLALKEETEKFKENRMSKMIRVTSRVLDNTVTTKLQSFSEKQTIHFVVNVHSLIVILFTIFVWSGAPLRSAFMFFVRDALTCLLFCFVCSTDGVIVLDTELIKYIIVLTLANLYFTTRSSFCTERLSRCIQREKRFPINSNFASLITVDTMTDSRQIQYFLSTVTKYQAAQDSYSNELFERFPKNWGCTSILIFPIVFVYWYFIDSNFDKICVSVLPSFCLAAGEELFAKNMFWKEREAMQAKQRLENEEQAESITGSSLEKLFAGNKPVSNTDKANIVKKSSIIRNQKPCLQDLSPGTYDVSNFMKYPHQASRIFREKIIGLYLRILKLRTLGVILCIPAILLIVISIGLLFIPVKRETLHTDSKQDDIFIEFEIFNFSTNWKIVNQNLKQFSEDIESIGTLYTISNWQKSFERFEQETNKNASAEWNILFKWINDEPINSAVTLFSEKSSGNQTIANPFKFRLRYGFDAKNETTVIEIVQKIDELLSKCSKNLSPKAVGVLYEHYHRIAVVWNLFAFNQLTTAGIFIILLSIITFIFAITPTIKATFLFSLLVVGTQIEVAALVHLFSLDHHQIYTNLALFAGFLAAWDPFCALLRYRRRILYKSETRRTPELASKRRVLLPIVATADIAQFFVLLITAFSILAIICSIVPELNIFFVPTVILIVIQIVAVFNSIIVSIATKQMFESEVRHYLHRDLRGSTTAVRVYNLVQKQRLASSLDEPQVELDEFSIKRSSPPCRYYAPPPKYSCKKRSRSSDEDEDSDPNQPGPSNRRSPKTGNKRVRGNGDNTELYIPNRYELIVSGKSVGGNTSAAWNGPGSTLEQNMNALEECFELGVDEYDFDEHDGDEGCELVQDMLDRERNLMNKRSTAQRRESRNIEKMKKSQENLDKEKSEEKISESKKNQDDSIESPNLPGTPANLPVDEPLPPVGRLYIVEHVLPEEYRRDPLTEPPSMEDCIRAHSDPNLPPHPRADQYPASFTRPMVEYCEDIYWTHRTGQLPPGLQVPRRPYDYYHITERTPPPEDLNWVPPAESPPIPIPQQAFDLLEERRRNHREQQDEAREGDLSDPEV
For B2, the binding result (with HSP-4::GFP (C. elegans); in assay [1]) was “binds” throughout.
